Experimental data reported in article PMC11884936, “MDC1 mediates Pellino recruitment to sites of DNA double-strand breaks” (Life Science Alliance, 2025).
Results are given in words; binding and its absence hold for the method and conditions named. In cells and extracts the contact can be indirect. Some results given as binding are weak or reduced against the parent protein; the word gives no strength.

Amino acid sequences for entries named in this document (tags omitted).
UniProt Q14676: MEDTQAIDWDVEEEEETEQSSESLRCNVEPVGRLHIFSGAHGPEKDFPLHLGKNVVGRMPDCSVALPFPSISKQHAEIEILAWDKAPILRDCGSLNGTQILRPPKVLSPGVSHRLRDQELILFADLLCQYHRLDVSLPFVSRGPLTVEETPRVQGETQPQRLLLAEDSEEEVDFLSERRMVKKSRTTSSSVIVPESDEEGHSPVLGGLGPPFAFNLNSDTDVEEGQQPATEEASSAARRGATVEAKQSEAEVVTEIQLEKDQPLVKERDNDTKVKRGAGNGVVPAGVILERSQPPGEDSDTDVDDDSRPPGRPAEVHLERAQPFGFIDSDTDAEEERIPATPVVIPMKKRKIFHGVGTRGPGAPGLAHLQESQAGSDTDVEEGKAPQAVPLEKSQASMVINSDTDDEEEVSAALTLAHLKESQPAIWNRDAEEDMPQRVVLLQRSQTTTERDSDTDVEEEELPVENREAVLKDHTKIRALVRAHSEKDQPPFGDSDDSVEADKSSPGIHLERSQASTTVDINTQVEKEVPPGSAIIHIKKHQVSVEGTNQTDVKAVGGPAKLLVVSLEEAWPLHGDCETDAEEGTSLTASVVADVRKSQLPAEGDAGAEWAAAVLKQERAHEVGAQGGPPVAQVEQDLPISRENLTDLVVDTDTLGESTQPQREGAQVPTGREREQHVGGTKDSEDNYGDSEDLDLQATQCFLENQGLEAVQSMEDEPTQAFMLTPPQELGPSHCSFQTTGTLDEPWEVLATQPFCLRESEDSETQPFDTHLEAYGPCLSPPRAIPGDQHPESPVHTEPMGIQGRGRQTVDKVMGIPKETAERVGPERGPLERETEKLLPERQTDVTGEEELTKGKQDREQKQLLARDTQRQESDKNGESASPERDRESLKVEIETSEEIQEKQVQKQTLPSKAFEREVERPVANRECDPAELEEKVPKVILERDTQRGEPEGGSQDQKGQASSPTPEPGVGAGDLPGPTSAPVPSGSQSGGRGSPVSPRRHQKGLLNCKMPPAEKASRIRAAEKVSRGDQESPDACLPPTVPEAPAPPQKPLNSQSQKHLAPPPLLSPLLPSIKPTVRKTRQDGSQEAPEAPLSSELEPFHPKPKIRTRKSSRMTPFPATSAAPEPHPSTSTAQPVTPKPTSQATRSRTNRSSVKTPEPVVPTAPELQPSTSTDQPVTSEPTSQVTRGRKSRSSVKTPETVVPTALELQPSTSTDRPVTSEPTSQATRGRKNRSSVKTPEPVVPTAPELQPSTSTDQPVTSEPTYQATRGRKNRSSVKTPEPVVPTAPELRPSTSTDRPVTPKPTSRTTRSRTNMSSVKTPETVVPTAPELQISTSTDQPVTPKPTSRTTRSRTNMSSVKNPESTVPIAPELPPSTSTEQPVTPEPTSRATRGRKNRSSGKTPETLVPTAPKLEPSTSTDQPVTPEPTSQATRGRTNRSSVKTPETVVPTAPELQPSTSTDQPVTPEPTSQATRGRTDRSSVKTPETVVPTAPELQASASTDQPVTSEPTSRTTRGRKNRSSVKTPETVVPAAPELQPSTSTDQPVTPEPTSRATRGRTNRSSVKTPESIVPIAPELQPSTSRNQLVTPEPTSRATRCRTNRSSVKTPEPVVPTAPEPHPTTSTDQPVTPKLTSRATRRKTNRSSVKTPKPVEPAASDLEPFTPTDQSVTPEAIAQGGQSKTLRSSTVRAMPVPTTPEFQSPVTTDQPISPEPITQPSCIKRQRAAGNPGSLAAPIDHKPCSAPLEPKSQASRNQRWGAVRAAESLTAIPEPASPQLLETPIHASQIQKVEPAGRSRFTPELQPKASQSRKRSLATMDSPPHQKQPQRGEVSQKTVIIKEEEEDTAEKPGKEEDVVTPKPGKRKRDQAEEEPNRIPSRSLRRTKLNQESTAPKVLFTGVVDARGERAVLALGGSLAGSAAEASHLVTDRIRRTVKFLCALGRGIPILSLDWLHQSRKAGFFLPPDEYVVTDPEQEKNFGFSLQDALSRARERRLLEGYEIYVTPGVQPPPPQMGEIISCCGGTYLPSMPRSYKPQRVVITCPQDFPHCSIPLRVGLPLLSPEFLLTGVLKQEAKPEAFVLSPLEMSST

Molecular target: T1, H2AX-[p]S139 biotinylated phosphopeptide (Biotin-SGS-…[p]SQEY-OH)
T1 sequence (peptide, biotin on the N-terminus; phosphoserine at S139; free C-terminus (-OH)): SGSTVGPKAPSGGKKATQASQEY
Assay: pull-down; biotinylated peptide on streptavidin Dynabeads, incubated with HeLa nuclear extract 4 h at 4°C; SDS-PAGE and Western blot; only the target purified

With “MDC1 (endogenous, HeLa nuclear extract) (from UniProt Q14676 1-2089)” the binding was “binds”.
